Here are results for one molecule from article PMC11516111.

Amino acid sequences for entries named in this document (tags omitted). Residues count along the entry.
UniProt P35869, residues 11-848: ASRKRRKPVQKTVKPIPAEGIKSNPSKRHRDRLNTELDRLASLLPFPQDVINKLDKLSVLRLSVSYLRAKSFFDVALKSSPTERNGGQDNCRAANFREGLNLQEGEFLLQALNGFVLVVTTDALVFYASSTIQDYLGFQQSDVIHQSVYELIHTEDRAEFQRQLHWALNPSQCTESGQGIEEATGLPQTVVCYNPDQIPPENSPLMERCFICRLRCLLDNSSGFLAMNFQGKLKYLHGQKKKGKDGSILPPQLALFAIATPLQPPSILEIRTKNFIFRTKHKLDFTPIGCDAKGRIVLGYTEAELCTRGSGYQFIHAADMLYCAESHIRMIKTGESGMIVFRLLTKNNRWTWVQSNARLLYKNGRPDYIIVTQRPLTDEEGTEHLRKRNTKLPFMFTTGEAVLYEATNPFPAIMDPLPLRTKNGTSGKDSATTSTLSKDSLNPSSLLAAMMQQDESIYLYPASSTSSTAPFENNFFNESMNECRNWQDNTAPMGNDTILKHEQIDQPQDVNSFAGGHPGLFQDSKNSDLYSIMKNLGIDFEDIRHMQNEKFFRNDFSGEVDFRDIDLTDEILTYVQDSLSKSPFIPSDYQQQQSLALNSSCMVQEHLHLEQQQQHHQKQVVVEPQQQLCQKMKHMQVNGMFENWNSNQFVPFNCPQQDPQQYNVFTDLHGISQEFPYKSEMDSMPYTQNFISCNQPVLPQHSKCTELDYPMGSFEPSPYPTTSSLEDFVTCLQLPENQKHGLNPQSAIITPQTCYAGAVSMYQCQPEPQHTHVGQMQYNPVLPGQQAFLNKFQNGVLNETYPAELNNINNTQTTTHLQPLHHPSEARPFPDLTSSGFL

This assay has as its target aryl hydrocarbon receptor (AHR), endogenous in Huh7 cells (human (endogenous in Huh7)) (UniProt P35869). Description: co-IP; endogenous proteins in Huh7 cells (Figure S4A); details not told in the text shown.

These are yes or no findings as the source states them, for the method shown. In cells and extracts the contact can be indirect. Some results given as binding are weak or reduced against the parent protein; the word gives no strength.

B1: sphingosine kinase 2 (SPHK2), endogenous in Huh7 cells (enzyme, UniProt Q9NRA0 1-654)
chain: MNGHLEAEEQQDQRPDQELTGSWGHGPRSTLVRAKAMAPPPPPLAASTPLLHGEFGSYPARGPRFALTLTSQALHIQRLRPKPEARPRGGLVPLAEVSGCCTLRSRSPSDSAAYFCIYTYPRGRRGARRRATRTFRADGAATYEENRAEAQRWATALTCLLRGLPLPGDGEITPDLLPRPPRLLLLVNPFGGRGLAWQWCKNHVLPMISEAGLSFNLIQTERQNHARELVQGLSLSEWDGIVTVSGDGLLHEVLNGLLDRPDWEEAVKMPVGILPCGSGNALAGAVNQHGGFEPALGLDLLLNCSLLLCRGGGHPLDLLSVTLASGSRCFSFLSVAWGFVSDVDIQSERFRALGSARFTLGTVLGLATLHTYRGRLSYLPATVEPASPTPAHSLPRAKSELTLTPDPAPPMAHSPLHRSVSDLPLPLPQPALASPGSPEPLPILSLNGGGPELAGDWGGAGDAPLSPDPLLSSPPGSPKAALHSPVSEGAPVIPPSSGLPLPTPDARVGASTCGPPDHLLPPLGTPLPPDWVTLEGDFVLMLAISPSHLGADLVAAPHARFDDGLVHLCWVRSGISRAALLRLFLAMERGSHFSLGCPQLGYAAARAFRLEPLTPRGVLTVDGEQVEYGPLQAQMHPGIGTLLTGPPGCPGREP
On to B1, for which the binding entry is reported as “binds”.
